Data source: PubChem BioAssay AID1259254 (NCATS, 2017)

- Aim: 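Finding genes that stop cells copying their DNA twice in one cycle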 (primary screen)
- System: human HCT116 colorectal cancer cells
- Reagent: single siRNA against human genes
- Duration: 3 days
- Measured: 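Imaged Hoechst DNA stain sorts each cell into a cycle phase by DNA amount; per plate, G2 fraction set to 0% for non-targeting and 100% for GMNN siRNA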
- Direction: G2 robust z-score and G2 cells, % of GMNN control: higher = more G2 cells, more excess DNA replication
- Active means: 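Active siRNAs have a G2 robust z of 5 or more median absolute deviations over the median, which in these data means about 38% or higher of GMNN control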
Here is one part, drawn at random, of about 59,000 reagents. About 1,550 of all reagents (2.6%) were called active. 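G2 share is only a proxy for re-replication; each gene was hit by three separate siRNAs, and active genes were retested.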 The numbers tell different reagents against one gene apart. Not all columns of the deposit are shown. Not stated in the record: the amount of reagent.

gene knocked down	siRNA no.	G2 robust z-score	G2 cells, % of GMNN control	Outcome
LAMTOR4	1	-0.332	0.629	inactive
LAMTOR4	2	-0.637	-1.52	inactive
LAMTOR4	3	3.84	30	inactive
FBXL16	1	-0.307	0.805	inactive
FBXL16	2	0.836	8.85	inactive
FBXL16	3	0.966	9.76	inactive
AKR1C3	1	0.486	6.39	inactive
AKR1C3	2	-0.305	0.82	inactive
AKR1C3	3	1.71	15	inactive
C2	1	6.32	47.4	active
C2	2	-0.485	-0.446	inactive
C2	3	-0.281	0.99	inactive
PIP5K1C	1	-1.35	-6.54	inactive
PIP5K1C	2	-0.0957	2.29	inactive
PIP5K1C	3	-0.479	-0.406	inactive
STK40	1	0.0651	3.43	inactive
STK40	2	2.67	21.7	inactive
STK40	3	0.341	5.37	inactive
OR5H1	1	-0.913	-3.45	inactive
OR5H1	2	0.452	6.15	inactive
OR5H1	3	3.69	28.9	inactive
ARHGAP29	1	-0.121	2.11	inactive
ARHGAP29	2	4.43	34.2	inactive
ARHGAP29	3	0.517	6.61	inactive
MTMR9	1	-0.211	1.48	inactive
MTMR9	2	0.136	3.92	inactive
MTMR9	3	1.18	11.3	inactive
PRORSD1P	1	0.2	4.38	inactive
PRORSD1P	2	-0.705	-1.99	inactive
PRORSD1P	3	-0.41	0.0799	inactive
CISH	1	0.001	2.97	inactive
CISH	2	0.794	8.55	inactive
CISH	3	-0.193	1.61	inactive
SPMIP3	1	0.27	4.87	inactive
SPMIP3	2	-0.398	0.166	inactive
SPMIP3	3	-0.147	1.93	inactive
TRIL	1	-1.16	-5.16	inactive
TRIL	2	-0.733	-2.19	inactive
TRIL	3	0.175	4.2	inactive
G6PD	1	-0.804	-2.69	inactive
G6PD	2	0.102	3.69	inactive
G6PD	3	2.48	20.4	inactive
KCNH3	1	0.907	9.35	inactive
KCNH3	2	5.76	43.5	active
KCNH3	3	-1.3	-6.17	inactive
FAM47DP	1	-0.529	-0.754	inactive
FAM47DP	2	1.15	11.1	inactive
FAM47DP	3	-0.599	-1.25	inactive
ARL6IP6	1	1.5	13.5	inactive
ARL6IP6	2	-0.206	1.52	inactive
ARL6IP6	3	-0.38	0.295	inactive
FGF5	1	1.69	14.8	inactive
FGF5	2	0.828	8.79	inactive
FGF5	3	-0.402	0.138	inactive
PTP4A3	1	-0.0362	2.71	inactive
PTP4A3	2	-0.213	1.47	inactive
PTP4A3	3	4.2	32.5	inactive
PABIR1	1	-0.0886	2.34	inactive
PABIR1	2	1.41	12.9	inactive
PABIR1	3	-0.614	-1.35	inactive
DHRS2	1	0.16	4.09	inactive
DHRS2	2	2.63	21.5	inactive
DHRS2	3	2.42	20	inactive
PRTN3	1	-1.63	-8.5	inactive
PRTN3	2	4.84	37	inactive
PRTN3	3	0.395	5.75	inactive
OR7G3	1	4.23	32.7	inactive
OR7G3	2	-0.555	-0.94	inactive
OR7G3	3	1.27	11.9	inactive
ENPP7	1	-0.828	-2.86	inactive
ENPP7	2	0.793	8.55	inactive
ENPP7	3	-0.474	-0.367	inactive
MCM7	1	-1.13	-4.95	inactive
MCM7	2	-0.854	-3.04	inactive
MCM7	3	1.54	13.8	inactive
GNAT1	1	-0.132	2.04	inactive
GNAT1	2	-0.238	1.29	inactive
GNAT1	3	-0.569	-1.03	inactive
KCNF1	1	0.383	5.66	inactive
KCNF1	2	-1.26	-5.89	inactive
KCNF1	3	-0.744	-2.27	inactive
PCYT1A	1	1.41	12.9	inactive
PCYT1A	2	-0.0347	2.72	inactive
PCYT1A	3	2.47	20.4	inactive
C1QTNF7	1	3.5	27.6	inactive
C1QTNF7	2	3.13	25	inactive
C1QTNF7	3	-0.246	1.23	inactive
